Data from article PMC4039310 (Molecular Systems Biology, 2013).

Tested on: PC9 cells
Assay: Phosphotyrosine proteomics (phosphopeptide immunoprecipitation, nano-LC-MS/MS) with erlotinib
Type: cell-based, human
Conditions: 1 μM, 1 h vs DMSO

## C#Cc1cccc(Nc2ncnc3cc(OCCOC)c(OCCOC)cc23)c1 [Erlotinib, erlotinib]
  unique phosphotyrosine sites significantly perturbed: 66
  unique proteins with significantly perturbed phosphotyrosine sites: 35
